Reference: paper doi:10.1101/2021.03.25.436925
Read-outs that look alike come from different tables or passages of the source. These are yes or no findings as the source states them, for the method shown. Binding seen in cells or lysates may run through a third protein. Binding calls can cover weak binding; strength is not graded here. Where a sequence is shown, tags or fusion partners need not be part of it.

Chains of the proteins cited; added tags and fusions are not shown. Lines headed by an entry give the natural chain unless they say otherwise; changes in a name come on top.
UniProt P11087: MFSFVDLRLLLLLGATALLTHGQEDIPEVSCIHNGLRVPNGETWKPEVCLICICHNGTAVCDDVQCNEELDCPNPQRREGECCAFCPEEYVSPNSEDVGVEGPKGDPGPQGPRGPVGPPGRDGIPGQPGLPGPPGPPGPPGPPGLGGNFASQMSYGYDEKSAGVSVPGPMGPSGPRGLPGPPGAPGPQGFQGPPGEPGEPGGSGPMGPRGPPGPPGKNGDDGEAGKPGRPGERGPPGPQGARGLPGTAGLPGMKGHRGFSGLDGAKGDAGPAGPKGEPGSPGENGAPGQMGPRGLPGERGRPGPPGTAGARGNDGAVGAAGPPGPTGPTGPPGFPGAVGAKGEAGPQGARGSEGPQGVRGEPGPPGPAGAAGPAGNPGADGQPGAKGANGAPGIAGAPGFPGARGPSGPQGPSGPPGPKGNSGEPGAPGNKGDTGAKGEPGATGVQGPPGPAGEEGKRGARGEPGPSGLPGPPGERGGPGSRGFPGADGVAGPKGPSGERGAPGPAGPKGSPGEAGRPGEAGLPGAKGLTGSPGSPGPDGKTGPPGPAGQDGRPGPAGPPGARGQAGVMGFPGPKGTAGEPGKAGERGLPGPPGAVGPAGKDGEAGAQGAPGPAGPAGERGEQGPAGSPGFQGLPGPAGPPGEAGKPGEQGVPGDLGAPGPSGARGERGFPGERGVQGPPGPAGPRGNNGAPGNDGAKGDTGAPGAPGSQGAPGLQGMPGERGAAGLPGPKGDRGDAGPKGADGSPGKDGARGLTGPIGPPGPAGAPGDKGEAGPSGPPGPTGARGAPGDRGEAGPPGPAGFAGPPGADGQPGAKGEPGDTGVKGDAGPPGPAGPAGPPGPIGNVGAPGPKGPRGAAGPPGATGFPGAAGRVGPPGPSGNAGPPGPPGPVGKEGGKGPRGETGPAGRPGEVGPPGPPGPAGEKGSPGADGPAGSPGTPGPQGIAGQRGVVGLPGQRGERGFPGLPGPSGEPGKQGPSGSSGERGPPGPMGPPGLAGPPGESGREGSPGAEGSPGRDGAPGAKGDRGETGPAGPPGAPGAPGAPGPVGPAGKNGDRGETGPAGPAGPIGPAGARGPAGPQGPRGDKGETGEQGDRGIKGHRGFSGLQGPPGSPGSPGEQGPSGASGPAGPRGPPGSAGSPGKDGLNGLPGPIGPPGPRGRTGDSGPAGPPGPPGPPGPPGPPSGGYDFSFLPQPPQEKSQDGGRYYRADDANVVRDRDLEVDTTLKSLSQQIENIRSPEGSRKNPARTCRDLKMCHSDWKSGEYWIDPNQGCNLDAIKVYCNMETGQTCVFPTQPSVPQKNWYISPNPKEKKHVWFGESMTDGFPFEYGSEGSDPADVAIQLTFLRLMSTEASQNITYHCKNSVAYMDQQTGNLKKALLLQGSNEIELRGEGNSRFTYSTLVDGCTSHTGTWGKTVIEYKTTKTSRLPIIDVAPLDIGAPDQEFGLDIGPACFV

Assays:
[1] = target: T1, VPS33b with GFP1-10 cloned onto its C-terminus (VPSbarrel) (UniProt P59016); experiment: split reporter
T1 sequence: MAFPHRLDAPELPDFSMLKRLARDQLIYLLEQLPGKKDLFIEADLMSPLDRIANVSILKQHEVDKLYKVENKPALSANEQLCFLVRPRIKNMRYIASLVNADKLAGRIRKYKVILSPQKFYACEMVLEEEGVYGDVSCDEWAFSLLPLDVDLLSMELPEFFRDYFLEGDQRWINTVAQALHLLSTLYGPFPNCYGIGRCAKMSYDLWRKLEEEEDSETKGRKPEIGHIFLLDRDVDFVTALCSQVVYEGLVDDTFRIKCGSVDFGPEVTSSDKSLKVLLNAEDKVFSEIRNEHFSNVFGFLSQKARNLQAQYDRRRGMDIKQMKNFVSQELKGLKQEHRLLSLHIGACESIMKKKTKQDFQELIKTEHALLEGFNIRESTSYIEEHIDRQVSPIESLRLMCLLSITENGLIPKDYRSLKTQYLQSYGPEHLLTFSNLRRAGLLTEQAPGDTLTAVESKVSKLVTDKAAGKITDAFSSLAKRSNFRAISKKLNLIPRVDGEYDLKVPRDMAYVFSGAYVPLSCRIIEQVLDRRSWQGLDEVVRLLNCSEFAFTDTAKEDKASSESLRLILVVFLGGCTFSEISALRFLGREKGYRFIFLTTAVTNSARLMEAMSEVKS

[2] = target: T1, VPS33b with GFP1-10 cloned onto its C-terminus (VPSbarrel); experiment: split reporter; remark: listed apart in the source

For “proα1(I) chain of collagen-I with the GFP11 peptide (colI-GFP11) (from UniProt P11087)”, the binding [1] was “binds” and the binding [2] was “binds”.
